{
  "sequences": {"note": "Sequences of proteins named here, by UniProt entry; tags and fusion partners are left off. A change or cut given only in a name is not applied to a line headed by its entry.", "UniProt Q99988": "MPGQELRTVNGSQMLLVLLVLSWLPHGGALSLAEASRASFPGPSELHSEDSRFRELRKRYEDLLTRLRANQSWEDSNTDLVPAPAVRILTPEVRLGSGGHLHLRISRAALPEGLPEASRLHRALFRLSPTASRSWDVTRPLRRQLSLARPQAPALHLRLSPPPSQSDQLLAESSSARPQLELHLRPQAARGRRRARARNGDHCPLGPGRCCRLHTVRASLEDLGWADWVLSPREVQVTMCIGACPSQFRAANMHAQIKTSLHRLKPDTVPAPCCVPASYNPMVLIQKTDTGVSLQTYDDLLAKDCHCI"},
  "source": "patent US20210340205A1",
  "key": {"[1]": {"molecular_target": "Human cRET(ECD)-Fc (human)", "assay": "MSD plate assay, cRET(ECD)-Fc coated, streptavidin sulfo-tag detection"}, "[2]": {"molecular_target": "Human cRET(ECD)-Fc (human)", "assay": "MSD plate assay of FIG. 5, cRET(ECD)-Fc coated"}},
  "note": "Results are given in words; binding and its absence hold for the method and conditions named. Some binding calls cover weakened binding; strength is not graded here.",
  "data": [
    {"substance": "His-GDF15(biotin)/GFRAL(ECD)-Fc complex (from UniProt Q99988 197-308)", "values": [
      {"measurement": "binding", "setting": "[1]", "result": "binds"},
      {"measurement": "binding", "setting": "[2]", "result": "binds"}
    ]}
  ]
}
